Experimental data published in patent US20150258059A1, “ANTIMICROBIAL AND RADIOPROTECTIVE COMPOUNDS” (BioDiem, Ltd, priority 2001, published 2015).
In brackets after ≈: the same amount, converted by molar mass.

Tested on: Aspergillus fumigatus
Experiment: M38-P microdilution MIC/MFC
Assay type: cell-based
Conditions: Table 16, 48 h, 35° C.

C[C@@H]1[C@H](O)[C@@H](C)/C=C/C=C/C=C/C=C/C=C/C=C/C=C/[C@H](O[C@@H]2O[C@H](C)[C@@H](O)[C@H](N)[C@@H]2O)C[C@@H]2O[C@](O)(C[C@@H](O)C[C@@H](O)[C@H](O)CC[C@@H](O)C[C@@H](O)CC(=O)O[C@H]1C)C[C@H](O)[C@H]2C(=O)O [Amphotericin B]
MIC: 1 µg/mL (≈ 1.08 µM)
